Test results as given in article PMC5725882.
Results are given in words; binding and its absence hold for the method and conditions named. In cells and extracts the contact can be indirect. Some entries that bind do so weakly or less than the wild type.

Molecular target: T1, SVIP (UniProt Q8NHG7)
T1 sequence: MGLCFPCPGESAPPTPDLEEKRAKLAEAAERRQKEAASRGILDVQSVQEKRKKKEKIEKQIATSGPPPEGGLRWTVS
Experiment: pull-down; p97 with SVIP in the presence of different nucleotides; no further details

binding: binds
Substance: full-length wild-type p97 (^FLp97^wt) (from UniProt P55072 1-806) (enzyme)
